Test results as given in publication PMC9866149.

Target: P21-activated kinase 1 (PAK1) (pig (endogenous in porcine oocytes))
Assay: co-IP; lysate of approximately 700 porcine oocytes (first meiotic division, 28 h) incubated with anti-PAK1 antibody at 4 °C overnight, protein A and G beads 3 h at 4 °C, immunoblotting; rabbit IgG as control

- binding: binds
B1: Aurora A (protein, UniProt A5GFW1 1-402)
chain: MDKCKENCISGLKTTVPPGDGPKRVPVTQHFPAQHLPSANSGQAQRVLCPSNSSQRLPSHTQKLVSSHKPVQNLKQKQSQATSGPRPVSRPLSNTQQSEQPQPAAPGNNPEKEAASKQKNEESKKRQWALEDFEIGRPLGKGKFGNVYLAREKQSKFILALKVLFKTQLEKAGVEHQLRREVEIQSHLRHPNILRLYGYFHDATRVYLILEYAPLGAVYRELQKLSKFDEQRTATYITELANALSYCHSKRVIHRDIKPENLLLGSAGELKIADFGWSVHAPSSRRTTLCGTLDYLPPEMIEGRMHDEKVDLWSLGVLCYEFLVGKPPFEANTYQETYKRISRVEFTFPDFVPEGARDLISRLLKHNPSHRPTLKEVLEHPWITANSKPASSHKKESTSKQP

These are yes or no findings as the source states them, for the method shown. In cells and extracts the contact can be indirect. A result given as binding can be weak or reduced; the word gives no strength.
